Binding data for 2 molecules are collected here from patent US20210115152A1 (ARBELE, published 2021).

By UniProt entry, the sequences of proteins in these tests, tags left out. Residues count along the entry.
UniProt Q12864, residues 23-787: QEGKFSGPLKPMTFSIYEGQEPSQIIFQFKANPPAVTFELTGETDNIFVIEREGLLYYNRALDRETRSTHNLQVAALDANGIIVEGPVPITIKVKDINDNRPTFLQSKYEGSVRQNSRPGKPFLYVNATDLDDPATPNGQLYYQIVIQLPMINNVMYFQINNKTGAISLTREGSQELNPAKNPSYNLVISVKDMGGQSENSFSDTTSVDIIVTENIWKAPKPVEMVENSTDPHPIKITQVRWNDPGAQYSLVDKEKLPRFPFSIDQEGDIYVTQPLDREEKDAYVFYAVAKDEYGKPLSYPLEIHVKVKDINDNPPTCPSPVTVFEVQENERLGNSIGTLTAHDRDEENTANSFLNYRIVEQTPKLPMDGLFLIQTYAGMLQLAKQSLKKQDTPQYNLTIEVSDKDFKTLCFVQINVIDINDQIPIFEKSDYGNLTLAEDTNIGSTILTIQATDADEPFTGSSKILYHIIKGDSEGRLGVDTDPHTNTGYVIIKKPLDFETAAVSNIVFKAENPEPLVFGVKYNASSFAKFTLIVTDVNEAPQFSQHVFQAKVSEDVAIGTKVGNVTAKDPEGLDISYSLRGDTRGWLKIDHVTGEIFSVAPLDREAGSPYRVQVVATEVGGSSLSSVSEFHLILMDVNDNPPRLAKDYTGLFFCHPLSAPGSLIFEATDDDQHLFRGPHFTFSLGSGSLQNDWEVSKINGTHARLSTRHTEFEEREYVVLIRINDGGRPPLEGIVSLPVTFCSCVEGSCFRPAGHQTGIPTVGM

These are yes or no findings as the source states them, for the method shown. Some entries that bind do so weakly or less than the wild type.

The target of experiment [1] is recombinant CDH17 (cadherin-17), coated on microtiter wells (UniProt Q12864). Briefly: ELISA, recombinant CDH17 coated.
Experiment [2] shares this target. Briefly: ELISA, CHO conditioned medium on recombinant CDH17, anti-human Fc-HRP. On the technique in general: An ELISA detects its analyte on a solid surface through an enzyme-linked reagent.

B1: h10G4fL (h10G4U1fL; ARB202), CDH17xCD3 bispecific antibody of the IgG-scFv / fL design, IgG4 (bispecific antibody)
heavy: EVQLVESGGGLVQPGGSLRLSCAASGFTFSSYAMSWVRQTPGKGLEWVAVIDSNGGSTYYPDTVKDRFTISRDNSKNTLYLQMNSLRAEDTAVYYCSSYTNLGAYWGQGTLVTVSSASTKGPSVFPLAPSSKSTSGGTAALGCLVKDYFPEPVTVSWNSGALTSGVHTFPAVLQSSGLYSLSSVVTVPSSSLGTQTYICNVNHKPSNTKVDKRVEPKSCDKTHTCPPCPAPELLGGPSVFLFPPKPKDTLMISRTPEVTCVVVDVSQEDPEVQFNWYVDGVEVHNAKTKPREEQFNSTYRVVSVLTVLHQDWLNGKEYKCKVSNKGLPSSIEKTISKAKGQPREPQVYTLPPSQEEMTKNQVSLTCLVKGFYPSDIAVEWESNGQPENNYKTTPPVLDSDGSFFLYSRLTVDKSRWQEGNVFSCSVMHEALHNHYTQKSLSLSLGKPAGGGGSEVQLVESGGGLVQPGGSLRLSCAASGYSFTGYTMNWVRQAPGKGLEWVALINPYKGVSTYNQKFKDRFTISVDKSKNTAYLQMNSLRAEDTAVYYCARSGYYGDSDWYFDVWGQGTLVTVSSGGGGSGGGGSGGGGSDIQMTQSPSSLSASVGDRVTITCRASQDIRNYLNWYQQKPGKAPKLLIYYTSRLESGVPSRFSGSGSGTDYTLTISSLQPEDFATYYCQQGNTLPWTFGQGTKVEIK
light: DIQMTQSPSSLSASVGDRVTITCRASQDISGYLNWLQQKPGGAIKRLIYTTSTLDSGVPKRFSGSGSGTDFTLTISSLQSEDFATYYCLQYASSPFTFGGGTKVEIKRTVAAPSVFIFPPSDEQLKSGTASVVCLLNNFYPREAKVQWKVDNALQSGNSQESVTEQDSKDSTYSLSSTLTLSKADYEKHKVYACEVTHQGLSSPVTKSFNRGEC
For B1, the binding result in experiment [1] and in experiment [2] was “binds” throughout.

B2: h5G1fL, CDH17xCD3 bispecific antibody of the IgG-scFv / fL (full length) design, IgG1 (bispecific antibody, not shown: a dimerising Fc or GST; large carriers)
heavy (part 1 of 2): QVQLVQSGAEVKKPGASVKVSCKVSAYAFSSSWMNWVRQAPGKGLEWMGRIYPRDGDTNYNGKFKGRVTMTADTSTDTAYMELSSLRSEDTAVYYCAREGDGYYWYFDVWGQGTTVTVSS
heavy (part 2 of 2): EVQLVESGGGLVQPGGSLRLSCAASGYSFTGYTMNWVRQAPGKGLEWVALINPYKGVSTYNQKFKDRFTISVDKSKNTAYLQMNSLRAEDTAVYYCARSGYYGDSDWYFDVWGQGTLVTVSSGGGGSGGGGSGGGGSDIQMTQSPSSLSASVGDRVTITCRASQDIRNYLNWYQQKPGKAPKLLIYYTSRLESGVPSRFSGSGSGTDYTLTISSLQPEDFATYYCQQGNTLPWTFGQGTKVEIK
light: EIVLTQSPATLSLSPGERATLSCRASQSIRNYLHWYQQKPGEAPRLLIYYASQSISGIPARFSGSGSGTDFTLTISSLETEDFAMYYCQHSNSWPLTFGQGTKLEIK
For the molecule B2, the binding result in experiment [1] and in experiment [2] was “binds” throughout.
